Assay results published in article doi:10.1101/2025.03.21.644421 (bioRxiv, 2025).
No constants are given. Whether binding was seen depends on the method and setting. Binding seen in cells or lysates may run through a third protein. A result given as binding can be weak or reduced; the word gives no strength. Where a sequence is shown, tags or fusion partners need not be part of it.

Protein sequences, listed by entry. Tags and fused reporters are not part of them. Lines headed by an entry give the natural chain unless they say otherwise; changes in a name come on top.
UniProt P0AD03: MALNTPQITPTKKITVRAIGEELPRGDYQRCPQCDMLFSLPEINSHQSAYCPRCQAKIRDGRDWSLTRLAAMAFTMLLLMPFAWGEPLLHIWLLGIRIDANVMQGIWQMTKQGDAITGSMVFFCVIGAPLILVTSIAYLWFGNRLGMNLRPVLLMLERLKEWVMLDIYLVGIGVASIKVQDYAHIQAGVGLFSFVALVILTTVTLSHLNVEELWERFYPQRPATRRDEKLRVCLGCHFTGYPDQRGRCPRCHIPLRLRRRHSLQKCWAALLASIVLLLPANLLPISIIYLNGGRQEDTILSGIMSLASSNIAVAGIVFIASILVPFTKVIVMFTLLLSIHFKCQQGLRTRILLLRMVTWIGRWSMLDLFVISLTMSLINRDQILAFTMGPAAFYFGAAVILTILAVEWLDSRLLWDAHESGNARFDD

Target: LetAΔZnR^C (E. coli) (UniProt P0AD03)
Experiment: pull-down

B1: LetB (Lipophilic Envelope-spanning Tunnel B), untagged (natural protein, E. coli, UniProt P76272 1-877, looked up)
chain: MSQETPASTTEAQIKNKRRISPFWLLPFIALMIASWLIWDSYQDRGNTVTIDFMSADGIVPGRTPVRYQGVEVGTVQDISLSDDLRKIEVKVSIKSDMKDALREETQFWLVTPKASLAGVSGLDALVGGNYIGMMPGKGKEQDHFVALDTQPKYRLDNGDLMIHLQAPDLGSLNSGSLVYFRKIPVGKVYDYAINPNKQGVVIDVLIERRFTDLVKKGSRFWNVSGVDANVSISGAKVKLESLAALVNGAIAFDSPEESKPAEAEDTFGLYEDLAHSQRGVIIKLELPSGAGLTADSTPLMYQGLEVGQLTKLDLNPGGKVTGEMTVDPSVVTLLRENTRIELRNPKLSLSDANLSALLTGKTFELVPGDGEPRKEFVVVPGEKALLHEPDVLTLTLTAPESYGIDAGQPLILHGVQVGQVIDRKLTSKGVTFTVAIEPQHRELVKGDSKFVVNSRVDVKVGLDGVEFLGASASEWINGGIRILPGDKGEMKASYPLYANLEKALENSLSDLPTTTVSLSAETLPDVQAGSVVLYRKFEVGEVITVRPRANAFDIDLHIKPEYRNLLTSNSVFWAEGGAKVQLNGSGLTVQASPLSRALKGAISFDNLSGASASQRKGDKRILYASETAARAVGGQITLHAFDAGKLAVGMPIRYLGIDIGQIQTLDLITARNEVQAKAVLYPEYVQTFARGGTRFSVVTPQISAAGVEHLDTILQPYINVEPGRGNPRRDFELQEATITDSRYLDGLSIIVEAPEAGSLGIGTPVLFRGLEVGTVTGMTLGTLSDRVMIAMRISKRYQHLVRNNSVFWLASGYSLDFGLTGGVVKTGTFNQFIRGGIAFATPPGTPLAPKAQEGKHFLLQESEPKEWREWGTALPK
**Q.** How did the binding turn out when B1 was run?
**A.** Its binding is “binds”.
